Source: the supplement of paper PMC8256030
Where “and” joins values, the source holds several entries; their conditions need not be identical. Equal entries are not always repeated. The list shows a part of the results. This data set is noisy: repeats of one test often differ as much as different tests do.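 HEK293T cells were given each compound shortly before transfection with a reporter in which red mCherry is followed by the SARS-CoV-2 frameshift element and then GFP in the −1 frame, so GFP appears only after frameshifting.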

Columns and labels:
[1] = test system: SARS-CoV-2 -1 PRF reporter mCherry-FSE-GFP(-1); experiment: mCherry (red) intensity as percent of control; higher = higher upstream reporter expression; conditions: 10 µM; 24 h; HEK293T
[2] = test system: SARS-CoV-2 -1 PRF reporter mCherry-FSE-GFP(-1); experiment: percent effect, decrease of GFP/mCherry ratio (-1 PRF reporter) relative to controls; higher = stronger frameshift inhibition; conditions: 10 µM; 24 h; HEK293T

Structure (SMILES) | mCherry [1] | percent effect [2]
CO[C@@]1(NC(=O)C2SC(=C(C(N)=O)C(=O)O)S2)C(=O)N2C(C(=O)O)=C(CSc3nnnn3C)CS[C@@H]21 (some centres not stated) | 82.5% | -1.62%
CC(C)/N=c1\cc2n(-c3ccc(Cl)cc3)c3ccccc3nc-2cc1Nc1ccc(Cl)cc1 [clofazimine] | 115% | 1.31% and -1.39%
CC(C)NCC(O)COc1cccc2[nH]ccc12 (configuration not stated) [pindolol] | 105% and 110% | -2.15% and -9.18%
Cc1cc(-n2nc3ccc(Cl)cc3n2)c(O)c(C(C)(C)C)c1 [bumetrizole] | 88.9% | -2.61%
Cc1nc(=O)c2cc(CN(C)c3ccc(C(=O)N[C@@H](CCC(=O)O)C(=O)O)s3)ccc2[nH]1 [raltitrexed] | 148% | 6.32%
Oc1ccccc1/C=N/Cc1ccccc1 [norletimol] | 80.4% | -10.9%
CCCCCCc1ccc(O)cc1O.Nc1c2ccccc2nc2ccccc12 [acrisorcin] | 15.3% | -16.2%
CN1CCN2c3ccccc3Cc3ccccc3C2C1 (configuration not stated) | 98.3% | -0.631%
O=C(O)c1ccccc1Nc1cc(Cl)ccc1C(=O)O [lobenzarit] | 103% | -1.75%
O=C(CCCN1CCC(O)(c2ccc(Br)cc2)CC1)c1ccc(F)cc1 [bromperidol] | 105% | -6.38%
CN(C)CC/C=C1/c2ccccc2COc2ccc(CC(=O)O)cc21 [Patanol] | 107% | -0.527%
CC[C@]1(O)C[C@H]2CN(CCc3c([nH]c4ccccc34)[C@@](C(=O)OC)(c3cc4c(cc3OC)N(C=O)[C@H]3[C@@](O)(C(=O)OC)[C@H](OC(C)=O)[C@]5(CC)C=CCN6CC[C@]43[C@@H]65)C2)C1 | 35.9% | -28.1%
C[C@H](Cc1ccc(O)c(O)c1)[C@@H](C)Cc1ccc(O)c(O)c1 [Actinex] | 36.2% | -5.17%
O=C(O)CCNC(=O)c1ccc(/N=N/c2ccc(O)c(C(=O)O)c2)cc1 | 85.5% | -1.3%
CCC[C@@H]1C[C@@H](C(=O)N[C@@H]([C@H]2O[C@H](SC)[C@H](O)[C@@H](O)[C@H]2O)[C@@H](C)O)N(C)C1 [Lincocin] | 101% | -5.21%
Cn1nc(-c2cccc(F)c2)n(C)c1=S [suritozole] | 102% | -2.84%
O=C(Nc1cccc(C2=NCCN2)c1)Nc1cccc(C2=NCCN2)c1 [imidocarb] | 94.8% | -3.01%
OC(CCCN1CCc2c(c3cc(F)ccc3n2-c2ccc(F)cc2)C1)c1ccc(F)cc1 (configuration not stated) [flutroline] | 57.1% | -4.8%

Another view of three compounds above.
Structure (SMILES)	mCherry [1]	percent effect [2]
Cc1nc(=O)c2cc(CN(C)c3ccc(C(=O)N[C@@H](CCC(=O)O)C(=O)O)s3)ccc2[nH]1 [raltitrexed]	148%	6.32%
Oc1ccccc1/C=N/Cc1ccccc1 [norletimol]	80.4%	-10.9%
CCCCCCc1ccc(O)cc1O.Nc1c2ccccc2nc2ccccc12 [acrisorcin]	15.3%	-16.2%

More entries:

Structure (SMILES) | mCherry [1] | percent effect [2]
O=C(O)CCCCC1CCSS1 (configuration not stated) | 91.1% | 1.9%
Nc1c(CC(=O)O)cccc1C(=O)c1ccccc1 [amfenac] | 107% | -0.0736%
Cn1c(=O)c2c(ncn2CC(O)CO)n(C)c1=O (configuration not stated) [diprophylline] | 104% | -2.94%
Nc1ccc(C(=O)O)cc1 | 104% | -5.19%
C=CCc1cc(OC)c(O)c(C(=O)NCCO)c1 [alibendol] | 90.2% | -4.58%
COc1cc2[nH]c(C)c(CCN3CCN(c4ccccc4)CC3)c2cc1OC [oxypertine] | 74.9% | -3.04%
O=C1CN(/N=C/c2ccc(-c3ccc([N+](=O)[O-])cc3)o2)C(=O)N1 | 113% | -3.85%
CN1CCN(C(c2ccccc2)c2ccccc2)CC1 [cyclizine] | 108% | -1.09%
Cc1c(C(C)C)c(=O)n(-c2ccccc2)n1C [propyphenazone] | 110% | -2.88%
N[C@@H](Cc1ccc(O)cc1)C(=O)O [tyrosine] | 96.1% | -0.728%
O=C(O)CNC(=O)CNC(=O)CNC(=O)CSC(=O)c1ccccc1 [betiatide] | 65% | 2.92%
CC(=O)SC[C@@H](C)C(=O)N1CCC[C@H]1C(=O)N[C@@H](Cc1ccccc1)C(=O)O [alacepril] | 84.3% | 5.09%
Nc1nc2ccc(OC(F)(F)F)cc2s1 [riluzole] | 97.6% | 2.1%
Cc1ccnc2c1NC(=O)c1cccnc1N2C1CC1 [nevirapine] | 106% | -3.01%
Cc1ccc2nc(C)c(CCN3CCC(C(=O)c4ccc(F)cc4)CC3)c(=O)n2c1 [metrenperone] | 88.8% | -7.06%
CC(C)c1nc(N(C)S(C)(=O)=O)nc(-c2ccc(F)cc2)c1/C=C/[C@@H](O)C[C@@H](O)CC(=O)O [Rosuvastatin] | 77.4% | -4.2%
OCCN1C[C@H](O)[C@@H](O)[C@H](O)[C@H]1CO [miglitol] | 93.5% | -2.37%
O=C(O[C@@H]1C[C@@H]2C[C@H]3C[C@H](C1)N2CC3=O)c1c[nH]c2ccccc12 [Dolasetron] | 106% | -1.68%
